Common to all, as to experiment: co-IP
The target in assay [1] is GFP-tagged constitutively active (CA) V12 CDC42b (brain CDC42 isoform) (UniProt P60953).
Assay [2] addresses GFP-tagged constitutively active (CA) V12 CDC42u (ubiquitous CDC42 isoform) (UniProt P60953).
Assay [3] concerns the target GFP-tagged constitutively active (CA) V12 CDC42b (brain CDC42 isoform) (UniProt P60953). This is another data set of the same source.
Assay [4] addresses GFP-tagged constitutively active (CA) V12 CDC42u (ubiquitous CDC42 isoform) (UniProt P60953). This is another data set of the same source.

Chains of the proteins cited; added tags and fusions are not shown. Lines headed by an entry give the natural chain unless they say otherwise; changes in a name come on top. A line that says so, or that is headed by a name, gives the form on record, which may keep a tag or linker.
UniProt P60953: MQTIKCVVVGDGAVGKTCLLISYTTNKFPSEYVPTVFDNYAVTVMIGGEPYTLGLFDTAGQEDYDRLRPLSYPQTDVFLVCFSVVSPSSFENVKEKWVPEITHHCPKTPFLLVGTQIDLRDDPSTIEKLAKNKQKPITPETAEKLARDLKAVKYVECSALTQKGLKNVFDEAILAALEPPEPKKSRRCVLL
GFP-tagged constitutively active (CA) V12 CDC42b (brain CDC42 isoform) (P60953, form named): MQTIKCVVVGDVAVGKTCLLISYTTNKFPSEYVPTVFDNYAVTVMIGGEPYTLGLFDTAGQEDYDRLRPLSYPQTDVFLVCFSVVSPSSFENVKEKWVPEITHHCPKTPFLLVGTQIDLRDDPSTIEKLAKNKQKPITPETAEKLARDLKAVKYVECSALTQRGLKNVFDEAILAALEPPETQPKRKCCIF
GFP-tagged constitutively active (CA) V12 CDC42u (ubiquitous CDC42 isoform) (P60953, form named): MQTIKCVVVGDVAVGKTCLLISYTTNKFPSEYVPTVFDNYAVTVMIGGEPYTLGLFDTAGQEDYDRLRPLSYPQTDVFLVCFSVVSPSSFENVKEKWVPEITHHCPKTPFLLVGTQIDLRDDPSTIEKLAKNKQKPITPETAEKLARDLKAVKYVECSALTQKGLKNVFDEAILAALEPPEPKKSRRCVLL
UniProt O00401: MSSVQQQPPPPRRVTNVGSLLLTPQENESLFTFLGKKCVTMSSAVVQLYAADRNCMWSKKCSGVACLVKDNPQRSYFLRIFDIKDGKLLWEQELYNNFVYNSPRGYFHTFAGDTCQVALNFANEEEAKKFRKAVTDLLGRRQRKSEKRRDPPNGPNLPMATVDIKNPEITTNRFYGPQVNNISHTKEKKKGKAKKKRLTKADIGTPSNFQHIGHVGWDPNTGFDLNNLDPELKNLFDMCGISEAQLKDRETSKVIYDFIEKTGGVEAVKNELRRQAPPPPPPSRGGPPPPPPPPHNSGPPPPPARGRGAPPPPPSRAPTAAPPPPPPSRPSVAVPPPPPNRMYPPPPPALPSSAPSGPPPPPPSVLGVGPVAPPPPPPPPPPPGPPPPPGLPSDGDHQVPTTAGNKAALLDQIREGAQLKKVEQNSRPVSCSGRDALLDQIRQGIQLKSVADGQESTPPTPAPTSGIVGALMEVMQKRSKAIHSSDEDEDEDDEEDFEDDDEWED

Read-outs that look alike come from different tables or passages of the source. No constants are given. Whether binding was seen depends on the method and setting. In cells and extracts the contact can be indirect. Some entries that bind do so weakly or less than the wild type.

As to N-WASP (from UniProt O00401 1-505), the binding entry in assay [1] and in assay [2] was “binds” each time.

B1: PKCζ (enzyme, UniProt Q05513 1-592)
chain: MPSRTGPKMEGSGGRVRLKAHYGGDIFITSVDAATTFEELCEEVRDMCRLHQQHPLTLKWVDSEGDPCTVSSQMELEEAFRLARQCRDEGLIIHVFPSTPEQPGLPCPGEDKSIYRRGARRWRKLYRANGHLFQAKRFNRRAYCGQCSERIWGLARQGYRCINCKLLVHKRCHGLVPLTCRKHMDSVMPSQEPPVDDKNEDADLPSEETDGIAYISSSRKHDSIKDDSEDLKPVIDGMDGIKISQGLGLQDFDLIRVIGRGSYAKVLLVRLKKNDQIYAMKVVKKELVHDDEDIDWVQTEKHVFEQASSNPFLVGLHSCFQTTSRLFLVIEYVNGGDLMFHMQRQRKLPEEHARFYAAEICIALNFLHERGIIYRDLKLDNVLLDADGHIKLTDYGMCKEGLGPGDTTSTFCGTPNYIAPEILRGEEYGFSVDWWALGVLMFEMMAGRSPFDIITDNPDMNTEDYLFQVILEKPIRIPRFLSVKASHVLKGFLNKDPKERLGCRPQTGFSDIKSHAFFRSIDWDLLEKKQALPPFQPQITDDYGLDNFDTQFTSEPVQLTPDDEDAIKRIDQSEFEGFEYINPLLLSTEESV
Turning to B1, the binding entry in assay [3] and in assay [4] was “binds” throughout.
